From patent publication US20070090330A1, “NOVEL AQUEOUS COMPOSITION AND USE OF THE SAME” (Institute for State Physics of Natural Materials, priority 1999, published 2007)

Experiment: Test 8: antirusting test at various concentrations, iron plate under HCl gas stream
Design: key: +: corrosion; −: no corrosion

Fe(II)2Fe(III)3Cl13 [compound 1]
−: The state of corrosion of the surface after 1 hour (2.5 × 10^−1 g/ml) | The state of corrosion of the surface after 6 days (2.5 × 10^−1 g/ml) | The state of corrosion of the surface after 1 hour (2.5 × 10^−3 g/ml) | The state of corrosion of the surface after 6 days (2.5 × 10^−3 g/ml) | The state of corrosion of the surface after 1 hour (2.5 × 10^−5 g/ml) | The state of corrosion of the surface after 6 days (2.5 × 10^−5 g/ml) | The state of corrosion of the surface after 1 hour (2.5 × 10^−7 g/ml) | The state of corrosion of the surface after 6 days (2.5 × 10^−7 g/ml)
